# Source: paper PMC10428001 (Cancer research, 2022)
# System: Ba/F3 cells HER2 755_757LREdelinsRP
# Assay: Ba/F3 cell viability
# Type: cell-based
# Conditions: Mus musculus, BaF3, 72 h, read-out: IC50 (average ± SD)
smiles,measurement,value
COc1cc2ncnc(Nc3ccc(F)c(Cl)c3)c2cc1OCCCN1CCOCC1 [gefitinib],IC50,558 ± 155 nM
